From publication doi:10.1101/2019.12.12.874503
Results are given in words; binding and its absence hold for the method and conditions named. In cells and extracts the contact can be indirect. Binding can be weak; no strength is given. Sequences can lack the tags named with a protein.

molecular target: T1, uL5c-HA (chloroplast-encoded ribosomal protein Rpl5 with C-terminal triple-HA tag) (Chlamydomonas reinhardtii) (UniProt Q8HTL1); assay: co-IP
T1 sequence: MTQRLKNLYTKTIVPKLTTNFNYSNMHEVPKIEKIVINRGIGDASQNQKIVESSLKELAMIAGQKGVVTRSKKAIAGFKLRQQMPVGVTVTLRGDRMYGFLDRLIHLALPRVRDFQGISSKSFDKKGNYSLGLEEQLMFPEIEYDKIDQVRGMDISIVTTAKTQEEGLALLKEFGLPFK

Substance	binding
uL37	no binding
uS11c	binds
cpSRP54	binds
trigger factor (TIG1)	binds
uL1c	binds
